From PMC9833666 (Science Advances, 2023)
End groups of sequences in plain letters are not given here.

Test: peptide made by a vendor
Conditions: whole synthesis, one disulfide bridge, sequence written open
For CLTIRLDDRRSRVKVSVEVC, the outcome was “One SyRC peptide and three SyRA peptides could not be synthesized”. For CRIKVDIDNGSGRLRLEVEC, the outcome was “One SyRC peptide and three SyRA peptides could not be synthesized”. For CVTIRVDNGRGGVKVTVEVC, the outcome was “One SyRC peptide and three SyRA peptides could not be synthesized”. With CVTVRLDNGRSGVRISVQVC the outcome was “* was not synthesized”.

Same assay, conditions: whole synthesis, reversed-phase high-performance LC and MS quality control, one disulfide bridge, sequence written open
In the case of CLRIRLNDRRRGLRVSLQVC, the “purity (crude or final not stated)” value is reported as 70.2%. For CLRIRLNNGRRGLRVSVQVC, the “purity (crude or final not stated)” value was 70.3%. In the case of CLRIRLNNRGRGVKVSVEVC, the “purity (crude or final not stated)” value is reported as 96.6%. For CLRIRLNNRRRGLKVSLQVC, the “purity (crude or final not stated)” value was 83.5%. For CLRIRLNNRRRGLRISLQVC, the “purity (crude or final not stated)” value was 75.7%. With CLRIRLNNRRSRVRISVEVC the “purity (crude or final not stated)” value was 77%. In the case of CLRIRVDNRGSGVKVTLEVC, the “purity (crude or final not stated)” value is reported as 98.2%. With CLRIRVNNGGSRVRISLEVC the “purity (crude or final not stated)” value was 79.7%. For CLRIRVNNRGSGLRISVEVC, the “purity (crude or final not stated)” value was 91%. In the case of CLRIRVNNRRGGVRITVQVC, the “purity (crude or final not stated)” value is reported as 78.8%. In the case of CLRVRLDDRRGRLRISLQVC, the “purity (crude or final not stated)” value is reported as 77.5%. In the case of CLRVRLNNGGRRVKVSVQVC, the “purity (crude or final not stated)” value is reported as 73.3%. For CLRVRLNNGRRRLKVSLQVC, the “purity (crude or final not stated)” value was 85.4%. With CLRVRLNNRRGRLRVSLQVC the “purity (crude or final not stated)” value was 71.9%. For CLRVRLNNRRGRVKVSLQVC, the “purity (crude or final not stated)” value was 75.5%. For CLRVRLNNRRRGLKISLQVC, the “purity (crude or final not stated)” value was 75.1%. With CLRVRLNNRRRGLKVSVQVC the “purity (crude or final not stated)” value was 87.8%. In the case of CLRVRLNNRRRGLRISLQVC, the “purity (crude or final not stated)” value is reported as 81.6%. With CLRVRLNNRRRGVKVSVQVC the “purity (crude or final not stated)” value was 80.7%. With CLRVRVDNGGSRLKITLEVC the “purity (crude or final not stated)” value was 77.5%. In the case of CLRVRVNDRGSGVKITVEVC, the “purity (crude or final not stated)” value is reported as 70.3%. With CLRVRVNNRRSGVRVTLEVC the “purity (crude or final not stated)” value was 80.7%. In the case of CLTIRLDNGGRGVRISLQVC, the “purity (crude or final not stated)” value is reported as 70.3%. In the case of CLTIRVDNRGSRVRITLEVC, the “purity (crude or final not stated)” value is reported as 72%. For CLTIRVDNRRSRVKITLEVC, the “purity (crude or final not stated)” value was 74.2%. For CLTIRVNNRRGRVRISVQVC, the “purity (crude or final not stated)” value was 82.3%. In the case of CLTVRLDNRGRGLKISVEVC, the “purity (crude or final not stated)” value is reported as 75.8%. With CLTVRLDNRGSGLRITVEVC the “purity (crude or final not stated)” value was 88%. With CLTVRLNNRGGGVKISVEVC the “purity (crude or final not stated)” value was 71.8%. With CLTVRLNNRRRGVKVSVQVC the “purity (crude or final not stated)” value was 75.9%. In the case of CLTVRVDNRGSRLKVTVEVC, the “purity (crude or final not stated)” value is reported as 79.8%. With CLTVRVNNRGSGVKVSLEVC the “purity (crude or final not stated)” value was 89.8%. For CLTVRVNNRRSGVRVSVQVC, the “purity (crude or final not stated)” value was 92.8%. For CRIKIDVDNRRRTLKLQLEC, the “purity (crude or final not stated)” value was 77.1%. For CRIKINVNDGSRRLKLQVQC, the “purity (crude or final not stated)” value was 77.5%. With CRIKVDIDDRRGRVRLQLEC the “purity (crude or final not stated)” value was 83.6%. For CRIKVDINNRSGRVKLQVQC, the “purity (crude or final not stated)” value was 98.6%. With CRIKVDVNNRRRRVRLQVQC the “purity (crude or final not stated)” value was 74.2%. In the case of CRIKVNIDDRSRRLRLELEC, the “purity (crude or final not stated)” value is reported as 75.5%. For CRIKVNINNGRRRVKLQLQC, the “purity (crude or final not stated)” value was 87.1%. In the case of CRIKVNINNRRRTVKLELEC, the “purity (crude or final not stated)” value is reported as 78.4%. With CRIKVNVNNRGRRLRLEVQC the “purity (crude or final not stated)” value was 70.6%. For CRIRIDIDDRSRTLKLQLQC, the “purity (crude or final not stated)” value was 97.9%. In the case of CRIRIDIDNRGRTVRLEVQC, the “purity (crude or final not stated)” value is reported as 80.7%. For CRIRIDVNNGSGRLKLQLEC, the “purity (crude or final not stated)” value was 83.9%. For CRIRIDVNNRSGTLKLQVQC, the “purity (crude or final not stated)” value was 79.9%. With CRIRINIDNRSGTVRLEVQC the “purity (crude or final not stated)” value was 70.2%. In the case of CRIRININNRRGRLKLQVEC, the “purity (crude or final not stated)” value is reported as 93.3%. In the case of CRIRINVDNGGGTVRLQVEC, the “purity (crude or final not stated)” value is reported as 70.6%. With CRIRINVNDRGGTVRLEVEC the “purity (crude or final not stated)” value was 74.6%. With CRIRINVNNGSGRVRLELEC the “purity (crude or final not stated)” value was 76.5%. For CRIRINVNNRGRTLKLEVQC, the “purity (crude or final not stated)” value was 70.5%. With CRIRVNINNRRRTLRLEVEC the “purity (crude or final not stated)” value was 74.6%. For CRIRVNVNDGSGRVRLQVQC, the “purity (crude or final not stated)” value was 76.3%. For CRVKINIDNGSRRVRLEVEC, the “purity (crude or final not stated)” value was 70.7%. With CRVKINIDNRSRRVKLQVQC the “purity (crude or final not stated)” value was 74.4%. With CRVKINVDNRSGRVKLELQC the “purity (crude or final not stated)” value was 78.6%. In the case of CRVKINVNNRGRTLKLELEC, the “purity (crude or final not stated)” value is reported as 70.1%. For CRVKVNINNGSRRLRLQVQC, the “purity (crude or final not stated)” value was 78.9%. For CRVKVNVDDRGRRLKLELQC, the “purity (crude or final not stated)” value was 70.1%. For CRVRIDIDNRSRTLKLEVQC, the “purity (crude or final not stated)” value was 82.5%. For CRVRIDINNGRRRLKLQLQC, the “purity (crude or final not stated)” value was 74.3%. For CRVRINIDNRSGRVKLEVQC, the “purity (crude or final not stated)” value was 86.5%. For CRVRININNGGRRVKLEVQC, the “purity (crude or final not stated)” value was 82.6%. For CRVRININNGRRRVKLQLQC, the “purity (crude or final not stated)” value was 88.4%. With CRVRININNRSRTLKLELEC the “purity (crude or final not stated)” value was 80.5%. In the case of CRVRINVDDRRGRLKLQVEC, the “purity (crude or final not stated)” value is reported as 86.5%. For CRVRINVDNRGGTLKLQVQC, the “purity (crude or final not stated)” value was 82.7%. With CRVRINVNDGSGTVRLQVQC the “purity (crude or final not stated)” value was 92.8%. For CRVRINVNNRSGRLKLQVEC, the “purity (crude or final not stated)” value was 87.3%. In the case of CRVRVNIDNRSRTLRLQLQC, the “purity (crude or final not stated)” value is reported as 76.3%. For CRVRVNINNGSGRVKLELEC, the “purity (crude or final not stated)” value was 97.6%. In the case of CRVRVNINNRGGTVKLQLQC, the “purity (crude or final not stated)” value is reported as 75.2%. With CVRIRLNNGGRRVKVTLQVC the “purity (crude or final not stated)” value was 88.8%. With CVRIRLNNGGSGVKVTVEVC the “purity (crude or final not stated)” value was 78.2%. With CVRIRLNNRRRGLKISLQVC the “purity (crude or final not stated)” value was 83%. For CVRIRLNNRRRGLKVSLQVC, the “purity (crude or final not stated)” value was 96%. With CVRIRLNNRRRRVKVSLEVC the “purity (crude or final not stated)” value was 89.8%. With CVRIRLNNRRRRVKVTLQVC the “purity (crude or final not stated)” value was 75.1%. With CVRIRLNNRRRRVRVSVQVC the “purity (crude or final not stated)” value was 80.7%. With CVRIRVNNRRRRVKVSVQVC the “purity (crude or final not stated)” value was 85.8%. For CVRIRVNNRRSGVKVSLQVC, the “purity (crude or final not stated)” value was 70.5%. For CVRVRLDNRGGGLRISLEVC, the “purity (crude or final not stated)” value was 84.8%. For CVRVRLDNRRSGLRISLQVC, the “purity (crude or final not stated)” value was 88.2%. With CVRVRLNDGGSGVRISVQVC the “purity (crude or final not stated)” value was 95.6%. In the case of CVRVRLNNGRRRLKVSLQVC, the “purity (crude or final not stated)” value is reported as 81.3%. For CVRVRLNNGRRRVKVSLQVC, the “purity (crude or final not stated)” value was 96.7%. In the case of CVRVRLNNRGGGLRITLQVC, the “purity (crude or final not stated)” value is reported as 93%. For CVRVRLNNRRRGLKISLQVC, the “purity (crude or final not stated)” value was 81.5%. For CVRVRLNNRRRGLKITLQVC, the “purity (crude or final not stated)” value was 97.7%. With CVRVRLNNRRRGLKVTLQVC the “purity (crude or final not stated)” value was 98.6%. With CVRVRLNNRRRGLRVSLQVC the “purity (crude or final not stated)” value was 96.6%. In the case of CVRVRLNNRRRGVKISLQVC, the “purity (crude or final not stated)” value is reported as 70.4%. With CVRVRLNNRRRRLKISLEVC the “purity (crude or final not stated)” value was 76.9%. For CVRVRLNNRRRRLKVSLEVC, the “purity (crude or final not stated)” value was 97%. For CVRVRLNNRRRRVKISVEVC, the “purity (crude or final not stated)” value was 71%. In the case of CVRVRLNNRRRRVRVSVQVC, the “purity (crude or final not stated)” value is reported as 85.5%. With CVRVRVDDRRGGLKISLQVC the “purity (crude or final not stated)” value was 81.8%. In the case of CVRVRVDNRGSRVKVTVQVC, the “purity (crude or final not stated)” value is reported as 81.6%. With CVRVRVNNGRRRLKVSLQVC the “purity (crude or final not stated)” value was 84%. In the case of CVRVRVNNRGGGVRITLQVC, the “purity (crude or final not stated)” value is reported as 76.6%. In the case of CVRVRVNNRGGRLKISVQVC, the “purity (crude or final not stated)” value is reported as 83.4%. With CVTIRLDDRRRGLRVTVQVC the “purity (crude or final not stated)” value was 71.6%. In the case of CVTIRLNDGGSGLKISLQVC, the “purity (crude or final not stated)” value is reported as 92.9%. For CVTIRLNDRRRGVKISVEVC, the “purity (crude or final not stated)” value was 96.9%. In the case of CVTIRVDNRGSRLKISVQVC, the “purity (crude or final not stated)” value is reported as 71.2%. For CVTIRVDNRGSRVRVTLEVC, the “purity (crude or final not stated)” value was 83.8%. In the case of CVTIRVNNRRSRVRISLQVC, the “purity (crude or final not stated)” value is reported as 74.4%. With CVTVRLNDRRSRLRITLEVC the “purity (crude or final not stated)” value was 85.6%. With CVTVRLNNRRRGLRVSLQVC the “purity (crude or final not stated)” value was 75.4%. For CVTVRVNNRGGRLKITLQVC, the “purity (crude or final not stated)” value was 78.2%. With CVTVRVNNRGGRLKVSVEVC the “purity (crude or final not stated)” value was 99.2%. With CVTVRVNNRGRGLRISLQVC the “purity (crude or final not stated)” value was 83.5%. With CVTVRVNNRGSRLKVSVEVC the “purity (crude or final not stated)” value was 74%. For CVTVRVNNRRRRVRISVQVC, the “purity (crude or final not stated)” value was 78.2%. With GSKKPVPIIYCNRRTGKCQRM the “purity (crude or final not stated)” value was 82.5%.

Same assay, conditions: whole synthesis, reversed-phase high-performance LC and MS quality control, several disulfide bridges, sequence written open
In the case of RGGRLCYCRRRFCVCVGR, the “purity (crude or final not stated)” value is reported as 79.9%.
